# Results reported in PubChem BioAssay AID2685 (National Center for Advancing Translational Sciences (NCATS), 2010).
# The list shows a part of the results. Further columns of the screen follow, without active or inactive calls. The list favours compounds with an active or inconclusive main result. Words in brackets tell the shape of the fitted curve; partial curves, single points and poor fits give uncertain potencies.
# Assay: qHTS Assay for Lipid Storage Modulators in Drosophila S3 Cells;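 for cell number change: cells counted by Cell Tracker Red CMTPX staining in the red channel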
# Details: BODIPY lipid droplet fluorescence, 18-24 h; for cell number change: measured here: cell count max response, cells fed with added oleic acid
# Procedure, shortened: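 Laser-scanning cytometry quantifies lipid droplet accumulation (500–530 nm total intensity; droplet/cell object ratio) in oleic acid-fed (400 uM added) Drosophila S3 cells treated with a concentration series. 20 uM Triacsin C defined 100% inhibition.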
# [1] = measured here: cell number channel AC50, cells fed with added oleic acid
# [2] = measured here: lipid fluorescence (Fed channel) AC50, cells fed with added oleic acid
Structure (SMILES),cell number change [%],AC50 [1],AC50 [2]
CC(Oc1ccc(Cl)cc1)c1ccnc(N)n1 (stereo not given),14.3,"0.58 µM [falling, single point]","0.58 µM [falling, single point]"
COc1cccc(C2CC(c3ccccc3)Nc3ncnn32)c1 (stereo not given),–,"6.51 µM [rising, single point]","0.651 µM [falling, single point]"
CCCn1nnnc1NC(=O)c1ccc(C)cc1Cl,-5.27,"2.91 µM [rising, partial curve]","2.91 µM [rising, single point]"
Cc1sc2nc[nH]c(=S)c2c1-c1ccccc1,-56,"29.1 µM [falling, single point]","29.1 µM [falling, single point]"
COC(=O)c1ccc(OCC2c3cc(OC)c(OC)cc3CCN2C(=O)C2CC2)cc1 (stereo not given),111,–,–
COc1cc(NC(=O)SC2=NCCS2)cc(OC)c1,-1.72,"6.51 µM [falling, single point]","6.51 µM [falling, single point]"
O=C(c1cn(-c2ccccc2)nc1-c1ccc(F)cc1)N1CCCCC1,–,–,"29.1 µM [rising, single point]"
CC1=NN(c2ccccc2)C(=O)/C1=C/c1cccc(C)c1,–,–,"0.58 µM [rising, single point]"
Cc1ccc(C)c(-c2nnc(NC(=O)c3ccc([N+](=O)[O-])o3)o2)c1,–,–,"1.3 µM [rising, single point]"
COc1ccc(C2=NN(CN3C(=O)C(=O)c4ccccc43)C(c3ccc(C)cc3)C2)cc1 (stereo not given),-68.5,–,"0.731 µM [rising, partial curve]"
Cc1cc(C)c2[nH]c(=O)c(C(c3nnnn3Cc3ccc4c(c3)OCO4)N3CCCCC3)cc2c1 (stereo not given),-7.64,–,"3.66 µM [rising, partial curve]"
CC(=O)N/C(=C\c1ccccc1)C(=O)OCC(=O)Nc1cc(S(=O)(=O)N(C)C)ccc1Cl,-92.9,"2.91 µM [falling, full curve, poor fit]","0.58 µM [falling, full curve]"
O=C(CSc1nnc(Cn2nnc3ccccc32)o1)Nc1cccc(Cl)c1,-0.743,–,–
CCn1c(SCC(=O)Nc2cc(C)ccc2C)nc2c(c1=O)SC(C)C2 (stereo not given),58.2,"0.0731 µM [rising, full curve]","0.0291 µM [rising, full curve, poor fit]"
Cc1ccc(NC(=O)C2CCN(C(=O)c3ccco3)CC2)cc1,21.7,–,"29.1 µM [rising, single point]"
CCOC(=O)C1=NNC(C(=O)c2ccc(C)cc2)C1c1ccc(OC)cc1 (stereo not given),–,–,"2.59 µM [rising, partial curve]"
O=S(=O)(c1cccc2nonc12)N1CCN(c2cccc(Cl)c2)CC1,12.7,–,"18.4 µM [rising, single point]"
Cc1cc(C)n(-c2ccnc3cc(Cl)ccc23)n1,–,–,"29.1 µM [rising, single point]"
C/C(Cl)=C/Cn1c(NCCN(C)C)nc2c1c(=O)n(C)c(=O)n2C,2.22,–,"6.51 µM [falling, single point]"
COc1ccc(/C=C2/C(=N)N3N=C(CC(=O)N4CCCC4)SC3=NC2=O)cc1,-34.4,"0.0517 µM [falling, full curve, poor fit]",–
CCNS(=O)(=O)c1ccc(NC(=O)c2cccnc2)cc1,0.372,–,–
CC12CCC(=O)N1C(C(=O)NCCN1C(=O)S/C(=C\c3ccccc3Cl)C1=O)CS2 (stereo not given),-20.5,"0.146 µM [falling, full curve, poor fit]","14.6 µM [falling, partial curve]"
COc1cc(C(=O)NCCc2ccc3c(c2)OCCO3)ccc1OCC(=O)N1CCOCC1,51.6,"29.1 µM [rising, single point]","5.17 µM [falling, full curve, poor fit]"
CC(=O)N1CCc2c(sc(NC(=O)c3ccc4c(c3)OCCO4)c2C#N)C1,–,"3.26 µM [rising, single point]",–
COc1ccccc1NS(=O)(=O)c1ccc(C(=O)N2CCCC(C)C2)cc1 (stereo not given),-26.5,–,–
COc1ccccc1NC(=O)N1CCOCC1,-27.9,–,"29.1 µM [falling, single point]"
Cc1nc2c3cc(F)ccc3n(Cc3ccccc3)c2s1,–,–,"0.00461 µM [falling, full curve, poor fit]"
CC1CCC(NC(=O)CN2C(=O)NC3(CCCCC3C)C2=O)CC1 (stereo not given),6.83,–,–
Cc1nc(-c2nc(-c3c(C(=O)NNC(=O)Nc4cccc(Cl)c4)noc3C)cs2)cs1,20.9,"3.26 µM [rising, single point]","18.4 µM [rising, single point]"

# Pulled by structure from above, two records:
Structure (SMILES),cell number change [%],AC50 [1],AC50 [2]
COC(=O)c1ccc(OCC2c3cc(OC)c(OC)cc3CCN2C(=O)C2CC2)cc1 (stereo not given),111,–,–
CC(=O)N1CCc2c(sc(NC(=O)c3ccc4c(c3)OCCO4)c2C#N)C1,–,"3.26 µM [rising, single point]",–
